The source of these data is article PMC10941358.

These are yes or no findings as the source states them, for the method shown. Binding seen in cells or lysates may run through a third protein. These calls come from enrichment with a bait or labelling near it, and not all partners need be listed.

The assay deals with SISTER OF FCA (SSF)-GFP (Arabidopsis thaliana). Description: affinity purification with mass spectrometry; immunoprecipitation with GFP antibody from ssf-2 proSSF:SSF-GFP transgenic plants, then mass spectrometry; Col-0 as control.

B1: Protein arginine methyltransferase 5 (PRMT5, SKB1), endogenous (protein, UniProt Q8GWT4 1-642)
chain: MPLGERGGWERTESRYCGVETDFSNDVTHLLNFNISTGGFDYVLAPLVDPSYRPSLVEGNGVDTQVLPVCGSDLVLSPSQWSSHVVGKISSWIDLDSEDEVLRMDSETTLKQEIAWATHLSLQACLLPTPKGKSCANYARCVNQILQGLTTLQLWLRVPLVKSEGDSMDDTSEGLNDSWELWNSFRLLCEHDSKLSVALDVLSTLPSETSLGRWMGESVRAAILSTDAFLTNARGYPCLSKRHQKLIAGFFDHAAQVVICGKPVHNLQKPLDSSSEGTEKNPLRIYLDYVAYLFQKMESLSEQERIELGYRDFLQAPLQPLMDNLEAQTYETFERDSVKYIQYQRAVEKALVDRVPDEKASELTTVLMVVGAGRGPLVRASLQAAEETDRKLKVYAVEKNPNAVVTLHNLVKMEGWEDVVTIISCDMRFWNAPEQADILVSELLGSFGDNELSPECLDGAQRFLKPDGISIPSSYTSFIQPITASKLYNDVKAHKDLAHFETAYVVKLHSVAKLAPSQSVFTFTHPNFSTKVNNQRYKKLQFSLPSDAGSALVHGFAGYFDSVLYKDVHLGIEPTTATPNMFSWFPIFFPLRKPVEVHPDTPLEVHFWRCCGSSKVWYEWSVSSPTPSPMHNTNGRSYWVGL
With B1, the binding entry was “binds”.
